{"source": "patent US7408048B2", "about": "“Mammalian grainyhead transcription factors” (Melbourne Health, priority 2002, dated 2008)", "key": {"curly tail (ct/ct) mice": {"tested_on": "curly tail (ct/ct) mice", "conditions": "administered in early gestation / pregnancy; cited from earlier work"}, "GRHL-3^−/− mice": {"tested_on": "GRHL-3^−/− mice", "assay_type": "in vivo, mouse", "conditions": "GRHL-3^−/− embryos, treatment of pregnant GRHL-3^+/− mice", "experimental": "GRHL-3^+/− mice were inter-crossed and folate, inositol or PBS placebo was administered to pregnant females as previously described. Embryos were harvested on E14.5 and genotyped and examined morphologically. […] The results were analysed statistically by the one-sided binomial probability test. NTDs in the curly tail mice are resistant to folate administered in early gestation. […] The effects of folate and inositol administration on pregnant GRHL-3^+/− mice previously mated with GRHL-3^+/− males was examined (Table 6). As expected, no rescue of spina bifida in GRHL-3^−/− embryos with placebo or folate treatment was observed. […] Although the numbers of embryos examined was small, the result was highly significant (p<0.001) given the 70% reduction in the incidence of spina bifida in inositol-treated ct/ct embryos. These findings indicate that GRHL-3 expression is essential for inositol-mediated rescue of folate-resistant NTDs."}}, "note": "At least one compound was matched to its structure with a doubt left."}
{"smiles": "Nc1nc(=O)c2nc(CNc3ccc(C(=O)N[C@@H](CCC(=O)O)C(=O)O)cc3)cnc2[nH]1", "note": "[Folate, folate]", "values": [{"measurement": "effect on NTDs / incidence of spina bifida", "setting": "curly tail (ct/ct) mice", "result": "resistant"}, {"measurement": "rescue of spina bifida (incidence, severity)", "setting": "GRHL-3^−/− mice", "result": "no rescue"}]}
